Reference: publication doi:10.1101/2024.03.19.585775
No constants are given. Whether binding was seen depends on the method and setting. Some binding calls cover weakened binding; strength is not graded here. For some assays here: Sequences can lack the tags named with a protein.

T1: (6xHis)Cdc3-GFP (S. cerevisiae) (UniProt P32457)
T1 sequence: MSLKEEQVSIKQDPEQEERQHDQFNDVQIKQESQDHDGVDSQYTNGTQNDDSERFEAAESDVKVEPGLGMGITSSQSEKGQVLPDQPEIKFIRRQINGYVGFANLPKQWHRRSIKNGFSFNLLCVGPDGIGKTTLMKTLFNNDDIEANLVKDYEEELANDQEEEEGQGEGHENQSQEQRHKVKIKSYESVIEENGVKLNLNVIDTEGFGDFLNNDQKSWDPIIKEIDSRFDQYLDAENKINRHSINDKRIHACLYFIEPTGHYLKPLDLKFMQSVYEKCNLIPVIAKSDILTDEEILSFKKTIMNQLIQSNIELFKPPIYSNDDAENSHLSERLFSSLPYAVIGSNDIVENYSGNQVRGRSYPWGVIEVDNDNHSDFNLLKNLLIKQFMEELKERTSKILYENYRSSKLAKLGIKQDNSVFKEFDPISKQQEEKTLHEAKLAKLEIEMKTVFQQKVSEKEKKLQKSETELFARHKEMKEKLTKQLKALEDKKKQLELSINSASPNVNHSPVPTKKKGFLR

T2: MBP-Cdc12 (S. cerevisiae) (UniProt P32468)
T2 sequence: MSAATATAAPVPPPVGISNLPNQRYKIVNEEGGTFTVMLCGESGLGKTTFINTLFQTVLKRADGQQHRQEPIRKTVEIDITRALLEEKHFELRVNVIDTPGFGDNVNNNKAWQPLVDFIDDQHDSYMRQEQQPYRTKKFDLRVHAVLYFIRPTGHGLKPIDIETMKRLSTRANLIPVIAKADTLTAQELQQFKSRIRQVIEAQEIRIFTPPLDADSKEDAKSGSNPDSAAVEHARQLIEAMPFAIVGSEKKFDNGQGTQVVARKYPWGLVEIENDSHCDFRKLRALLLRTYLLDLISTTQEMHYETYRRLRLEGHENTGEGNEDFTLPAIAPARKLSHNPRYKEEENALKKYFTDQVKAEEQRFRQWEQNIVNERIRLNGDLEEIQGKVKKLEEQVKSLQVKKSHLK

T3: ΔAH-Cdc12 (Cdc12 with the C-terminal residues 390-407 deleted) (S. cerevisiae) (UniProt P32468)
T3 sequence: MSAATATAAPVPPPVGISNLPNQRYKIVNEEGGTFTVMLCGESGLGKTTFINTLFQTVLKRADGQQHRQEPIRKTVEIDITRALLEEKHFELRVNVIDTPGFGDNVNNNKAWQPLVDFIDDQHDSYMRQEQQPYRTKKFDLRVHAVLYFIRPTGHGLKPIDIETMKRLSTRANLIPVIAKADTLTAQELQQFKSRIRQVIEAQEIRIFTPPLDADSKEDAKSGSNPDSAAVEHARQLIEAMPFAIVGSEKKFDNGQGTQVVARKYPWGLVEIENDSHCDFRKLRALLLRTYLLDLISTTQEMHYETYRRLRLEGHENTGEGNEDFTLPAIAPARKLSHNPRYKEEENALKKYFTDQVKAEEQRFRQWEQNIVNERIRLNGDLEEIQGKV

T4: ΔCTE-Cdc12 (Cdc12 with the C-terminal extension, residues 339-407, deleted) (S. cerevisiae) (UniProt P32468)
T4 sequence: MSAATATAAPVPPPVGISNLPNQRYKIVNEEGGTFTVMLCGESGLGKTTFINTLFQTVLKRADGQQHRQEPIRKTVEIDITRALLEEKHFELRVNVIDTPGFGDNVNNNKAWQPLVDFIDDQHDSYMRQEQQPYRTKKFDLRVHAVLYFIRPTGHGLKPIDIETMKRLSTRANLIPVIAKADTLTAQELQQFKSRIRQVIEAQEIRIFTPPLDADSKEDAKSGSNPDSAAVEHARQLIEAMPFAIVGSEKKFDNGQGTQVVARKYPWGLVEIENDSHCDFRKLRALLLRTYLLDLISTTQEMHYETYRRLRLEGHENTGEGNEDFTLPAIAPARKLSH


Columns and labels:
Test in all cases: co-purification
[1] = target: T1, (6xHis)Cdc3-GFP (S. cerevisiae)
Cdc10 (S. cerevisiae) = Cdc10 (S. cerevisiae) (UniProt P25342)
[2] = target: T2, MBP-Cdc12 (S. cerevisiae)
[3] = target: T3, ΔAH-Cdc12 (Cdc12 with the C-terminal residues 390-407 deleted) (S. cerevisiae)
[4] = target: T4, ΔCTE-Cdc12 (Cdc12 with the C-terminal extension, residues 339-407, deleted) (S. cerevisiae)

Row | binding [1] | binding (Cdc10 (S. cerevisiae)) | binding [2] | binding [3] | binding [4] | Binder
1 | binds | binds |  |  |  | Cdc10 (protein, UniProt P25342 1-322) MDPLSSVQPASYVGFDTITNQIEHRLLKKGFQFNIMVVGQSGLGKSTLINTLFASHLIDSATGDDISALPVTKTTEMKISTHTLVEDRVRLNINVIDTPGFGDFIDNSKAWEPIVKYIKEQHSQYLRKELTAQRERFITDTRVHAILYFLQPNGKELSRLDVEALKRLTEIANVIPVIGKSDTLTLDERTEFRELIQNEFEKYNFKIYPYDSEELTDEELELNRSVRSIIPFAVVGSENEIEINGETFRGRKTRWSAINVEDINQCDFVYLREFLIRTHLQDLIETTSYIHYEGFRARQLIALKENANSRSSAHMSSNAIQR
2 |  |  | binds | binds | binds | (6xHis)Cdc3-GFP (protein, UniProt P32457 1-520) MSLKEEQVSIKQDPEQEERQHDQFNDVQIKQESQDHDGVDSQYTNGTQNDDSERFEAAESDVKVEPGLGMGITSSQSEKGQVLPDQPEIKFIRRQINGYVGFANLPKQWHRRSIKNGFSFNLLCVGPDGIGKTTLMKTLFNNDDIEANLVKDYEEELANDQEEEEGQGEGHENQSQEQRHKVKIKSYESVIEENGVKLNLNVIDTEGFGDFLNNDQKSWDPIIKEIDSRFDQYLDAENKINRHSINDKRIHACLYFIEPTGHYLKPLDLKFMQSVYEKCNLIPVIAKSDILTDEEILSFKKTIMNQLIQSNIELFKPPIYSNDDAENSHLSERLFSSLPYAVIGSNDIVENYSGNQVRGRSYPWGVIEVDNDNHSDFNLLKNLLIKQFMEELKERTSKILYENYRSSKLAKLGIKQDNSVFKEFDPISKQQEEKTLHEAKLAKLEIEMKTVFQQKVSEKEKKLQKSETELFARHKEMKEKLTKQLKALEDKKKQLELSINSASPNVNHSPVPTKKKGFLR
